Measurements: the supplement of paper PMC10849652
The list shows a part of the results.

The chains behind the UniProt entries cited, without tags or fusion partners. Where a name states a change or a piece, a line headed by the entry shows the natural chain unless it says otherwise.
UniProt O75414: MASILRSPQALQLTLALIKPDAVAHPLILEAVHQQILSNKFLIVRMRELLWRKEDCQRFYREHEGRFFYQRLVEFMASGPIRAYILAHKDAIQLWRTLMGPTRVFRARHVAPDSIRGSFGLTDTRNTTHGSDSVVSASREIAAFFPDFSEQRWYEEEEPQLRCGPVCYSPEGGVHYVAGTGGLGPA
UniProt Q9NPE3: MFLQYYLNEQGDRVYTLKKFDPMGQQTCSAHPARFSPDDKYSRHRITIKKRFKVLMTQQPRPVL
UniProt P48552: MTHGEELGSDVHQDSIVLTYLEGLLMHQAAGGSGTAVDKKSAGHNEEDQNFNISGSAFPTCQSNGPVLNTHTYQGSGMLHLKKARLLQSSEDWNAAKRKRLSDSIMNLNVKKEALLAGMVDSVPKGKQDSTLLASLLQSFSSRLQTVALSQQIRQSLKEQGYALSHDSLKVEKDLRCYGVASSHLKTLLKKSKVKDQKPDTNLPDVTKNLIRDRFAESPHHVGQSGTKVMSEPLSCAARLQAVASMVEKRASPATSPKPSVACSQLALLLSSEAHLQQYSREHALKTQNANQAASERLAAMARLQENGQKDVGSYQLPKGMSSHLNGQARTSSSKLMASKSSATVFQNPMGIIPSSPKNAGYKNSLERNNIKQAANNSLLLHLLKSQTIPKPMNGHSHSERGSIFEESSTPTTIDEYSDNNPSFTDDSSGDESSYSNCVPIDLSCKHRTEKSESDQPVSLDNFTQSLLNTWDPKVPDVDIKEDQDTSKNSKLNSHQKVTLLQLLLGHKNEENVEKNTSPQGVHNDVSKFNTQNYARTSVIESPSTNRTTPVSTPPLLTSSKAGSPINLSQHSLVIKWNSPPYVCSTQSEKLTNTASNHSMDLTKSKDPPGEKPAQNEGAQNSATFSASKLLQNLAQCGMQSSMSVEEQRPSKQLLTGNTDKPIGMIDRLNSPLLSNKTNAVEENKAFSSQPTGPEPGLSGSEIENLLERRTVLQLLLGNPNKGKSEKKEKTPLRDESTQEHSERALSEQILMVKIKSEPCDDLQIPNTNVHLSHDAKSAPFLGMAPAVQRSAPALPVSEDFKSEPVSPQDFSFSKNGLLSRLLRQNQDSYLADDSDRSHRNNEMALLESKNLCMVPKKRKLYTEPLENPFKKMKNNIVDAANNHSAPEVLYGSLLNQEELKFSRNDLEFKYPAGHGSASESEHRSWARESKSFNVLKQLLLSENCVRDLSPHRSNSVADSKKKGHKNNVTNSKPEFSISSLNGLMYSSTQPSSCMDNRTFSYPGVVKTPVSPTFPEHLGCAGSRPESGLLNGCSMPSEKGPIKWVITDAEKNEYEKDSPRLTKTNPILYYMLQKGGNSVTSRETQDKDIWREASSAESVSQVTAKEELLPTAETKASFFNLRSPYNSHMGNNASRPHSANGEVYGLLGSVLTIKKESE
UniProt P49116: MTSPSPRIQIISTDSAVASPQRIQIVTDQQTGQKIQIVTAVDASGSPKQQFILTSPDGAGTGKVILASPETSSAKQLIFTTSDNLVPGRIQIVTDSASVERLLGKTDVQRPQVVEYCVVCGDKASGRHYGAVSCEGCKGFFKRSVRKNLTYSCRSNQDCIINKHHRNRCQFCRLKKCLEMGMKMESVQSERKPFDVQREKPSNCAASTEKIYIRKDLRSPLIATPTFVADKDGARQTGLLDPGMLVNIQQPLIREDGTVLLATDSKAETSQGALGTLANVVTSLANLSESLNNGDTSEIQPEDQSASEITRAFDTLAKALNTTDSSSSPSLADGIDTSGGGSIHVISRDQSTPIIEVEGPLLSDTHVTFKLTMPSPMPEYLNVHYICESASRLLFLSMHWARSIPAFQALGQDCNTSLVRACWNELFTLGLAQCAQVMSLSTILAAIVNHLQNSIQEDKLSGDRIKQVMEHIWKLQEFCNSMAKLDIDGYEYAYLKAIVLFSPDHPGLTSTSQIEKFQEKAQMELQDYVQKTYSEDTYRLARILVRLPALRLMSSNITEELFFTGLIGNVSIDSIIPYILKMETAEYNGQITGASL
UniProt Q9UHY1: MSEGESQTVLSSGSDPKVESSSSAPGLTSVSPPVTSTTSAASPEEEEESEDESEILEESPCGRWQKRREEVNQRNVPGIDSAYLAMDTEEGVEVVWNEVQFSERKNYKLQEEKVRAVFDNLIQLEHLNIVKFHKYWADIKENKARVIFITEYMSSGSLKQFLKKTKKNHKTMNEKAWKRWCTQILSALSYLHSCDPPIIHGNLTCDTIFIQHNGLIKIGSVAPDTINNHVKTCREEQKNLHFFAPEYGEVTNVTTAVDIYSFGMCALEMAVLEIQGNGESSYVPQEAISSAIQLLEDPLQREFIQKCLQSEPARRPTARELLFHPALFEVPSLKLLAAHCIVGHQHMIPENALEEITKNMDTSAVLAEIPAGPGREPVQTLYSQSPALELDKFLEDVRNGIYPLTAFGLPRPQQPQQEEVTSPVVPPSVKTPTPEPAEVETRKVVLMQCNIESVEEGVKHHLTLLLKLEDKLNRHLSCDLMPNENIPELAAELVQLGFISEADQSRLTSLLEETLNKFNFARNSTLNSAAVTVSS
UniProt P46531, whole entry, looked up: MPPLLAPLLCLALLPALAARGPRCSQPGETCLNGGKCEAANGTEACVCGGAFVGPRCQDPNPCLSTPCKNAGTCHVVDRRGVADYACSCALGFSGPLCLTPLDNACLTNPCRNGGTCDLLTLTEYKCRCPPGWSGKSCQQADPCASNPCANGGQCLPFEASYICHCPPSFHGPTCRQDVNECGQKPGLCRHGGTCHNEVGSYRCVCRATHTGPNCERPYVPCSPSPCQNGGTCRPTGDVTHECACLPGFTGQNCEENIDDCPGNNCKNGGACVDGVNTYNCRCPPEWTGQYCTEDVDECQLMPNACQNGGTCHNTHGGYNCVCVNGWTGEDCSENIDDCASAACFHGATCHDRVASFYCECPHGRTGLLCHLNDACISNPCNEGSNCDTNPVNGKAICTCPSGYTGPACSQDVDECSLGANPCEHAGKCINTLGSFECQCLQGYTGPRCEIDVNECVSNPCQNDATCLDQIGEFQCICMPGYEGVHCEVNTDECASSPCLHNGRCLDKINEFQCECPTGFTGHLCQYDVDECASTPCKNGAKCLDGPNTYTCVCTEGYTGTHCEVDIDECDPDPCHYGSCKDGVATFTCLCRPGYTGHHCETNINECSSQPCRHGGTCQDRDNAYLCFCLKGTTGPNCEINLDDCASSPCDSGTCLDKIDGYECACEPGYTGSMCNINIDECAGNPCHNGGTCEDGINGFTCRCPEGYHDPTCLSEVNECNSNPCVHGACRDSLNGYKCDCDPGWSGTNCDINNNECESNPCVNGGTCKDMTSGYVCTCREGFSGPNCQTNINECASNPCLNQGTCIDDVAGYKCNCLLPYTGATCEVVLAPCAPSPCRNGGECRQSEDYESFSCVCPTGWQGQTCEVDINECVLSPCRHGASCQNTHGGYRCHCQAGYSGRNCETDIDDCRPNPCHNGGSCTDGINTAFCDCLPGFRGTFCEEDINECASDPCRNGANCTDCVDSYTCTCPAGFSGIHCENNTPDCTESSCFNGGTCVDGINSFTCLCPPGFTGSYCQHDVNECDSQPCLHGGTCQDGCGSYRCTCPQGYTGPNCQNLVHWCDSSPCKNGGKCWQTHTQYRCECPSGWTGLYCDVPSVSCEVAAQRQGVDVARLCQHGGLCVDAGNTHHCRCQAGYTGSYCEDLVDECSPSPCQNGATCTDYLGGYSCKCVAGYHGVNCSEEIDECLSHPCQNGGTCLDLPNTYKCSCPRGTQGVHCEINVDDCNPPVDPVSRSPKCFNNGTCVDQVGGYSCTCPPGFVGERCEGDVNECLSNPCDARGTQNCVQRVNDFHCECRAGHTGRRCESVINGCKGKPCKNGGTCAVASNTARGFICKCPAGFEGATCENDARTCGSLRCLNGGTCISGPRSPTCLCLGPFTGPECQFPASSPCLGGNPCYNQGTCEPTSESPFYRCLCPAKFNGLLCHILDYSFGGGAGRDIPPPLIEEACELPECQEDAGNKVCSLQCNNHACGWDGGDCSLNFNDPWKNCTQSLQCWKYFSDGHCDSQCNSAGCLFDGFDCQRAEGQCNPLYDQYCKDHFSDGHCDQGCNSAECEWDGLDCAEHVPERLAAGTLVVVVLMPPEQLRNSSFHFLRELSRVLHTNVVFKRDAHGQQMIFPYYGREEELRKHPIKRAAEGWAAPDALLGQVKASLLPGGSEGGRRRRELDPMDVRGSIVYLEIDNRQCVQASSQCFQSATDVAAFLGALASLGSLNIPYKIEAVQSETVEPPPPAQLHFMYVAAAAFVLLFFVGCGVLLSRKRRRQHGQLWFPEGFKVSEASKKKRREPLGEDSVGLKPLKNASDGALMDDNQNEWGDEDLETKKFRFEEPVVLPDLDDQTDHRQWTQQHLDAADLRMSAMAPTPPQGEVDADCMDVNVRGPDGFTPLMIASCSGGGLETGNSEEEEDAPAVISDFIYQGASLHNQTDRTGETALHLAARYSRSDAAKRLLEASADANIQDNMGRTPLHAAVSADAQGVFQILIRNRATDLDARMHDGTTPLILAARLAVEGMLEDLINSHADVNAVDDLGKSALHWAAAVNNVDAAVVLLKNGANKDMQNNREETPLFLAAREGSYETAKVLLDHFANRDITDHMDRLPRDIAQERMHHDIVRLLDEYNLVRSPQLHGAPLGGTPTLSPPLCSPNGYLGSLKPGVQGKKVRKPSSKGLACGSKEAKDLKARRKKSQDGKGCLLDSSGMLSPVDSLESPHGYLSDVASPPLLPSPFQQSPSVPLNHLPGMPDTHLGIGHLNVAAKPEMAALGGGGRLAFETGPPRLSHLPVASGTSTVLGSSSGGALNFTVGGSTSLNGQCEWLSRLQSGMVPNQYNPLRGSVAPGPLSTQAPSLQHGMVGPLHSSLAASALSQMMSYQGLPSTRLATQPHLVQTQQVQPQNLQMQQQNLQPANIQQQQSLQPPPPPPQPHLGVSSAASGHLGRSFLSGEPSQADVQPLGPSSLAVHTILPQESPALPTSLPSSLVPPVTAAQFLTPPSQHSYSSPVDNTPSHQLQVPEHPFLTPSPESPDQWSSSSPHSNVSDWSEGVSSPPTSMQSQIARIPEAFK
UniProt O96028: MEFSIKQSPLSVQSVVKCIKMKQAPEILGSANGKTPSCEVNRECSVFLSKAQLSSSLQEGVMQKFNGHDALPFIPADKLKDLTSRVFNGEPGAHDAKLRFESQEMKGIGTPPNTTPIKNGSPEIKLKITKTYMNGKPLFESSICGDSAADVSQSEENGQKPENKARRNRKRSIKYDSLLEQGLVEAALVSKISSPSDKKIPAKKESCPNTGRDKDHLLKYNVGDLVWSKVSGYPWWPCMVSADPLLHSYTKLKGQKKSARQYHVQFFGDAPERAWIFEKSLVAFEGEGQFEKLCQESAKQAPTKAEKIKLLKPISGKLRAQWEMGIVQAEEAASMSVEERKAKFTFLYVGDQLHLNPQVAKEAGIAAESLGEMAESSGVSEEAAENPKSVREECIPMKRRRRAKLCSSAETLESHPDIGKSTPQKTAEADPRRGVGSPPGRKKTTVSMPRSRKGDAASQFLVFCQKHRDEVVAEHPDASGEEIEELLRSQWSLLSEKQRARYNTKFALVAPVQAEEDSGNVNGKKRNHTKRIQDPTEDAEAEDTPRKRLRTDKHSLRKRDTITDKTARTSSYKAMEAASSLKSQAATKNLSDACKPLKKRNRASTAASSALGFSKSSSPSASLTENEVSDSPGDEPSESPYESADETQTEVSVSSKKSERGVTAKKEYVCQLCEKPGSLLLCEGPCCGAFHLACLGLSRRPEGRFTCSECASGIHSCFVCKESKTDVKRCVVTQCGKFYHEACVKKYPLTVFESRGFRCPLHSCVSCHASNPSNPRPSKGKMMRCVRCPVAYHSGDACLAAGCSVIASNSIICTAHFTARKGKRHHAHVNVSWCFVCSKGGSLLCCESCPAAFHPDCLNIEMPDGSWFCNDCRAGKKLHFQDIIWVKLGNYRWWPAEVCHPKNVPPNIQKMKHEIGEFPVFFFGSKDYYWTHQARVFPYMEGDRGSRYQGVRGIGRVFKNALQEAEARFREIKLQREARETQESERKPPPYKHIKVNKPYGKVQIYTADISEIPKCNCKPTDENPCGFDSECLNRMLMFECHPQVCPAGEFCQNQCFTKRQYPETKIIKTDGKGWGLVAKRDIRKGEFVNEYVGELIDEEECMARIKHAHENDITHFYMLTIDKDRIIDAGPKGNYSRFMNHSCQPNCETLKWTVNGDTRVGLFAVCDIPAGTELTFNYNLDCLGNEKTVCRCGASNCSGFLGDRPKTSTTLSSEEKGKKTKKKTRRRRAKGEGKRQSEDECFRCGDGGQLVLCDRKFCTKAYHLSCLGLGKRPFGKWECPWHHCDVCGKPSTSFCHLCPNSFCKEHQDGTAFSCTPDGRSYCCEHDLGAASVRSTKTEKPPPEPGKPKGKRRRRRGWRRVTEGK
UniProt Q86WQ0: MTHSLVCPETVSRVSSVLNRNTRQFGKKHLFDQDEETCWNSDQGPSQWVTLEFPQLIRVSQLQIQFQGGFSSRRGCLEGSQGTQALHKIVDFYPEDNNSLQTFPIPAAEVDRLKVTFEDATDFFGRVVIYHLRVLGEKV

What was measured:
Assay in all cases: log2 fold change, soluble protein after heating vs DMSO (PISA); higher = thermal stabilisation; K562 lysate, 10 uM; active = over 0.2 and 3.5 SD of the protein, either way, in both replicates (recomputed)
lapatinib = compound: CS(=O)(=O)CCNCc1ccc(-c2ccc3ncnc(Nc4ccc(OCc5cccc(F)c5)c(Cl)c4)c3c2)o1 [lapatinib]
In short: (§1)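 A 30 min treatment with 10 μM compound was applied to crude K562 extract at 1 mg/mL protein in PBS pH 7.4 with 1 mM MgCl2. Heating for 3 min spanned 48°C-58°C, after which aliquots were pooled, adjusted to 0.5% NP-40 at 4°C and spun at 21,000xg for 90 min. TMTpro 16plex LC-MS/MS of the supernatant, with channel sums equalised, gave values recorded as log-two fold change in thermal stability against solvent controls, from duplicates.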

pictilisib = compound: CS(=O)(=O)N1CCN(Cc2cc3nc(-c4cccc5[nH]ncc45)nc(N4CCOCC4)c3s2)CC1 [pictilisib]
In short: as §1

crizotinib = compound: C[C@@H](Oc1cc(-c2cnn(C3CCNCC3)c2)cnc1N)c1c(Cl)ccc(F)c1Cl [crizotinib]
In short: as §1

[1] = compound: C[C@H](C1=CC=C(C=C1)C(=O)NC2=C3C=CNC3=NC=C2)N
In short: as §1

duvelisib = compound: C[C@H](Nc1ncnc2nc[nH]c12)c1cc2cccc(Cl)c2c(=O)n1-c1ccccc1 [duvelisib]
In short: as §1

gandotinib = compound: Cc1cc(Nc2cc(CN3CCOCC3)c3nc(C)c(Cc4ccc(Cl)cc4F)n3n2)n[nH]1 [gandotinib]
In short: as §1

tozasertib = compound: Cc1cc(Nc2cc(N3CCN(C)CC3)nc(Sc3ccc(NC(=O)C4CC4)cc3)n2)n[nH]1 [tozasertib]
In short: as §1

doramapimod = compound: Cc1ccc(-n2nc(C(C)(C)C)cc2NC(=O)Nc2ccc(OCCN3CCOCC3)c3ccccc23)cc1 [doramapimod]
In short: as §1

bafetinib = compound: Cc1ccc(NC(=O)c2ccc(CN3CC[C@H](N(C)C)C3)c(C(F)(F)F)c2)cc1Nc1nccc(-c2cncnc2)n1 [bafetinib]
In short: as §1

[2] = compound: Cc1cccc(CC(=O)N2CCc3c2ccc(-c2cn(C)c4ncnc(N)c24)c3F)n1
In short: as §1

nilotinib = compound: Cc1cn(-c2cc(NC(=O)c3ccc(C)c(Nc4nccc(-c5cccnc5)n4)c3)cc(C(F)(F)F)c2)cn1 [nilotinib]
In short: as §1

[3] = compound: Cc1nc(Nc2n[nH]c3c2CN(C(=O)N[C@H](CN(C)C)c2ccccc2)C3(C)C)c2sccc2n1
In short: as §1

dasatinib = compound: Cc1nc(Nc2ncc(C(=O)Nc3c(C)cccc3Cl)s2)cc(N2CCN(CCO)CC2)n1 [dasatinib]
In short: as §1

[4] = compound: Cc1ncc(-c2ccnc(Nc3ccc(S(C)(=O)=O)cc3)n2)n1C(C)C
In short: as §1

[5] = compound: Cn1cc(-c2ccc3c(c2)CCN3C(=O)Cc2cccc(C(F)(F)F)c2)c2c(N)ncnc21
In short: as §1

quisinostat = compound: Cn1cc(CNCC2CCN(c3ncc(C(=O)NO)cn3)CC2)c2ccccc21 [quisinostat]
In short: as §1

tipifarnib = compound: Cn1cncc1[C@@](N)(c1ccc(Cl)cc1)c1ccc2c(c1)c(-c1cccc(Cl)c1)cc(=O)n2C [tipifarnib]
In short: as §1

[6] = compound: NC(=O)Nc1cc(-c2cccc(F)c2)sc1C(=O)N[C@H]1CCCNC1
In short: as §1

[7] = compound: NC(=O)c1cnc(N[C@@H]2CCCC[C@@H]2N)nc1Nc1cccc(-n2nccn2)c1
In short: as §1

[8] = compound: NC1(c2ccc(-c3nc4ccn5c(=O)[nH]nc5c4cc3-c3ccccc3)cc2)CCC1
In short: as §1

Measured: log2 fold change

NOLC1 isoform 2 (UniProt Q14978)
inactive: lapatinib -0.015 | pictilisib -0.04 | crizotinib 0.013 | [1] -0.086 | duvelisib 0.008 | gandotinib 0.057 | tozasertib 0.004 | doramapimod -0.006 | bafetinib 0.026 | [2] 0.017 | nilotinib 0 | [3] -0.025 | dasatinib 0.008 | [4] -0.007 | [5] 0.012 | quisinostat 0.005 | tipifarnib 0.013 | [6] -0.039 | [7] -0.002 | [8] 0.027

NOM1 (UniProt Q5C9Z4)
inactive: lapatinib -0.04 | crizotinib -0.059 | [1] 0.069 | duvelisib -0.036 | gandotinib 0.108 | tozasertib 0.087 | doramapimod -0.075 | [2] 0.024 | nilotinib 0.096 | [3] -0.219 | dasatinib -0.076 | [4] -0.103 | [5] 0.196 | quisinostat 0.049 | tipifarnib 0 | [6] -0.013 | [7] 0.013

NOL8 (UniProt Q76FK4)
inactive: lapatinib -0.076 | crizotinib -0.049 | [1] -0.075 | duvelisib 0.047 | gandotinib -0.293 | doramapimod 0.086 | [2] 0.078 | dasatinib 0.073 | [5] 0.005 | quisinostat -0.09 | [6] 0.039 | [7] -0.123 | [8] -0.006

NME6 (UniProt O75414)
inactive: lapatinib -0.02 | pictilisib 0.019 | crizotinib 0.056 | [1] -0.011 | duvelisib -0.014 | gandotinib 0.003 | tozasertib 0.068 | doramapimod -0.022 | bafetinib -0.002 | [2] -0.014 | nilotinib 0.034 | [3] 0.074 | dasatinib -0.002 | [4] 0.042 | [5] 0.001 | quisinostat -0.02 | tipifarnib -0.001 | [6] -0.04 | [7] -0.073 | [8] -0.032

NSUN6 (UniProt Q8TEA1)
inactive: lapatinib 0.044 | pictilisib -0.034 | crizotinib -0.002 | [1] -0.019 | duvelisib -0.014 | gandotinib 0.009 | tozasertib -0.025 | doramapimod -0.018 | bafetinib -0.055 | [2] 0.008 | nilotinib -0.025 | [3] 0.006 | dasatinib -0.045 | [4] -0.027 | [5] 0.03 | quisinostat 0.055 | tipifarnib 0.007 | [6] -0.013 | [7] 0.015 | [8] 0.023

NOP10 (UniProt Q9NPE3)
inactive: lapatinib -0.084 | pictilisib -0.148 | crizotinib 0.045 | [1] 0.013 | duvelisib 0.046 | gandotinib -0.051 | tozasertib -0.102 | doramapimod 0.067 | bafetinib 0.087 | [2] -0.006 | nilotinib -0.067 | [3] -0.044 | dasatinib 0.027 | [4] -0.018 | [5] 0.022 | quisinostat 0.04 | tipifarnib 0.062 | [6] -0.03 | [7] 0.027 | [8] 0.075

NUP153 (UniProt P49790)
inactive: lapatinib 0.026 | pictilisib -0.005 | crizotinib -0.011 | [1] 0.014 | duvelisib 0.002 | gandotinib -0.041 | tozasertib -0.016 | doramapimod 0.036 | bafetinib -0.024 | [2] 0.018 | nilotinib -0.01 | [3] 0.014 | dasatinib -0.005 | [4] 0.029 | [5] 0.009 | quisinostat 0.013 | tipifarnib -0.023 | [6] -0.016 | [7] 0.007 | [8] 0.025

Reprinted from the results shown (2 entries):
NOP10 (UniProt Q9NPE3)
inactive: lapatinib -0.084 | pictilisib -0.148 | crizotinib 0.045 | [1] 0.013 | duvelisib 0.046 | gandotinib -0.051 | tozasertib -0.102 | doramapimod 0.067 | bafetinib 0.087 | [2] -0.006 | nilotinib -0.067 | [3] -0.044 | dasatinib 0.027 | [4] -0.018 | [5] 0.022 | quisinostat 0.04 | tipifarnib 0.062 | [6] -0.03 | [7] 0.027 | [8] 0.075

NUP153 (UniProt P49790)
inactive: lapatinib 0.026 | pictilisib -0.005 | crizotinib -0.011 | [1] 0.014 | duvelisib 0.002 | gandotinib -0.041 | tozasertib -0.016 | doramapimod 0.036 | bafetinib -0.024 | [2] 0.018 | nilotinib -0.01 | [3] 0.014 | dasatinib -0.005 | [4] 0.029 | [5] 0.009 | quisinostat 0.013 | tipifarnib -0.023 | [6] -0.016 | [7] 0.007 | [8] 0.025

(list continues)

NRIP1 (UniProt P48552)
inactive: lapatinib -0.052 | pictilisib -0.007 | crizotinib -0.155 | [1] -0.396 | duvelisib -0.014 | gandotinib 0.407 | doramapimod 0.048 | bafetinib -0.07 | [2] 0.26 | nilotinib 0.035 | [3] -0.127 | dasatinib 0.135 | [4] 0.035 | [5] 0 | quisinostat -0.437 | tipifarnib -0.03 | [6] 0.083 | [7] 0.022 | [8] -0.048

NR2C2 isoform 2 (UniProt P49116)
inactive: lapatinib -0.014 | pictilisib -0.025 | crizotinib -0.004 | [1] 0.064 | duvelisib -0.014 | gandotinib -0.079 | tozasertib -0.005 | doramapimod -0.004 | bafetinib 0.145 | [2] -0.025 | dasatinib -0.033 | [5] 0.064 | quisinostat -0.054 | [6] 0.04 | [7] -0.025 | [8] -0.048

NOS1AP (UniProt O75052)
inactive: lapatinib -0.225 | pictilisib -0.064 | crizotinib -0.229 | [1] -0.377 | gandotinib -0.032 | tozasertib 0.247 | doramapimod 0.34 | bafetinib -0.465 | [2] 0.484 | nilotinib -0.363 | [3] -0.058 | [4] -0.006 | quisinostat -0.462 | tipifarnib 0 | [6] -0.155 | [7] 0.107 | [8] 0.321

NRBP1 (UniProt Q9UHY1)
inactive: lapatinib 0.003 | pictilisib 0.005 | crizotinib -0.023 | [1] -0.021 | duvelisib 0.011 | gandotinib 0.068 | tozasertib -0.031 | doramapimod -0.004 | bafetinib -0.015 | [2] 0.041 | nilotinib 0.059 | [3] -0.034 | dasatinib 0.05 | [4] 0.019 | [5] -0.011 | quisinostat -0.007 | tipifarnib 0.041 | [6] 0.004 | [7] 0 | [8] 0.008

NOTCH1 (UniProt P46531)
inactive: lapatinib -0.044 | crizotinib 0.09 | [1] -0.328 | duvelisib -0.034 | gandotinib -0.117 | tozasertib 0.084 | doramapimod 0.007 | [2] 0.185 | nilotinib -0.127 | [3] 0.077 | dasatinib 0.001 | [4] 0.019 | [5] 0.047 | quisinostat -0.083 | tipifarnib 0.006 | [6] 0.044 | [7] 0.094 | [8] -0.022

NOMO3 (UniProt P69849)
inactive: lapatinib -0.002 | crizotinib -0.061 | duvelisib -0.087 | doramapimod 0.014 | nilotinib 0.036 | [3] -0.323 | dasatinib -0.15 | [4] -0.053 | [5] -0.029 | quisinostat -0.043 | tipifarnib -0.122 | [6] -0.049 | [7] -0.037 | [8] -0.178

NSA2 (UniProt O95478)
inactive: lapatinib 0.014 | pictilisib -0.088 | [1] -0.036 | duvelisib -0.055 | gandotinib 0.159 | tozasertib -0.086 | bafetinib 0.064 | [2] 0.221 | nilotinib 0.102 | [3] -0.04 | dasatinib -0.323 | [4] -0.08 | [5] -0.113 | tipifarnib -0.004 | [7] 0.076 | [8] -0.15

NT5C (UniProt J3KSX6)
inactive: lapatinib -0.066 | pictilisib 0.134 | bafetinib 0.07 | [7] 0.115

NSD2 (UniProt O96028)
inactive: lapatinib 0.022 | pictilisib 0.086 | crizotinib -0.141 | [1] -0.177 | gandotinib 0.077 | tozasertib -0.041 | doramapimod -0.095 | bafetinib -0.037 | [2] 0.093 | nilotinib 0.117 | [3] -0.055 | [4] -0.106 | quisinostat -0.077 | tipifarnib 0.031 | [6] -0.03 | [7] -0.335

NRDE2 (UniProt Q9H7Z3)
inactive: lapatinib 0.046 | pictilisib -0.014 | duvelisib 0 | bafetinib 0.034 | nilotinib -0.058 | [3] -0.023 | dasatinib 0 | [4] 0.126 | [5] -0.023 | tipifarnib 0.144 | [7] 0.123

NT5C3B (UniProt Q969T7)
inactive: lapatinib 0.009 | pictilisib 0.022 | crizotinib -0.043 | [1] -0.054 | duvelisib -0.017 | gandotinib 0.053 | tozasertib 0.046 | doramapimod -0.038 | bafetinib -0.021 | [2] -0.01 | nilotinib 0.01 | [3] -0.018 | dasatinib 0.006 | [4] 0.055 | [5] 0.005 | quisinostat 0.018 | tipifarnib -0.085 | [6] -0.026 | [7] 0.015 | [8] -0.002

NR2C2AP isoform 2 (UniProt Q86WQ0)
inactive: lapatinib -0.005 | pictilisib -0.003 | crizotinib -0.005 | [1] 0.005 | duvelisib 0.033 | gandotinib -0.071 | tozasertib 0.115 | doramapimod 0.01 | bafetinib 0.012 | [2] 0.016 | nilotinib -0.007 | [3] -0.007 | dasatinib -0.041 | [4] -0.032 | [5] -0.002 | quisinostat 0.033 | tipifarnib 0.07 | [6] -0.01 | [7] -0.008 | [8] 0.054
